Source: publication PMC5487340, “Peptides derived from MARCKS block coagulation complex assembly on phosphatidylserine” (Scientific Reports, 2017)
These are yes or no findings as the source states them, for the method shown.

Amino acid sequences for entries named in this document (tags omitted). Residues count along the entry.
UniProt P02769, residues 25-607: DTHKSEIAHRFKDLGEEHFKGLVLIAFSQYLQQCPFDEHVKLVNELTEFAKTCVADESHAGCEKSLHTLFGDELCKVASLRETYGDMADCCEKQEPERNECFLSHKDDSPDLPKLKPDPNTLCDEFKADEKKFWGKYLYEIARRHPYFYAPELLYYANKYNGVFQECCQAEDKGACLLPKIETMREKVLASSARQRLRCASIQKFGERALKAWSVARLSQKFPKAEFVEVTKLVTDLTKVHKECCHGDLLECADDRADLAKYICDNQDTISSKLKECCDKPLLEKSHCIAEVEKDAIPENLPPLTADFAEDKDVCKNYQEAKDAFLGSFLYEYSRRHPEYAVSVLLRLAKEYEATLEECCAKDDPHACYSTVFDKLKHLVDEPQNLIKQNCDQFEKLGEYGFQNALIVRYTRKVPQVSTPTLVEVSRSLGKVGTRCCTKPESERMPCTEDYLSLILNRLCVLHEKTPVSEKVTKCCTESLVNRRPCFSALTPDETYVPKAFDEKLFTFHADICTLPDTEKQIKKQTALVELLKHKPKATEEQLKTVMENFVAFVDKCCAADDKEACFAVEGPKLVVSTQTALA
UniProt P08758: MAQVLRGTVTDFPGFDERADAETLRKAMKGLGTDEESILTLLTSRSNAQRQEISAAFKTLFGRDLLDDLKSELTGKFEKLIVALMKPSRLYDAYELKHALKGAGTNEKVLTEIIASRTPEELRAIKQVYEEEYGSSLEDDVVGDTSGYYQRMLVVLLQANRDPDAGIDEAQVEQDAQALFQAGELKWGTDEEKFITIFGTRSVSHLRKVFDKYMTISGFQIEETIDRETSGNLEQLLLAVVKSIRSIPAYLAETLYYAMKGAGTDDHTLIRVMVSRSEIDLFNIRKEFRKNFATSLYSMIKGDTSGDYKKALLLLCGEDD

Target: bovine serum albumin (bovine) (UniProt P02769)
Experiment: SPR; control flow cell of an HPP (alkyl-SAM) sensor chip coated only with BSA; peptides and proteins flowed over; HBS running buffer (10 mM HEPES, 0.15 M NaCl, pH 7.4) with 2 mM CaCl2; both purified

| Molecule | binding |
| --- | --- |
| annexin V (from UniProt P08758 1-320) | no binding |
| GGDYDKIGKNDA (C-terminal amide (CONH2)) [C2BL3-L] | no binding |
